Compound in this assay: Cc1cc(ccc1-c1ccccc1)C(=O)N1CCCN(CC1)C(=O)CCl [compound 10]
Briefly: probe-labelled cysteine peptide fold change vs DMSO (competition) (log2 fold change); higher = less target engagement (more negative = stronger competition). Particulars: THP-1, incubation time: 4 h.

By UniProt entry, the sequences of proteins in these tests, tags left out. Where a name states a change or a piece, a line headed by the entry shows the natural chain unless it says otherwise.
UniProt Q8WVT3: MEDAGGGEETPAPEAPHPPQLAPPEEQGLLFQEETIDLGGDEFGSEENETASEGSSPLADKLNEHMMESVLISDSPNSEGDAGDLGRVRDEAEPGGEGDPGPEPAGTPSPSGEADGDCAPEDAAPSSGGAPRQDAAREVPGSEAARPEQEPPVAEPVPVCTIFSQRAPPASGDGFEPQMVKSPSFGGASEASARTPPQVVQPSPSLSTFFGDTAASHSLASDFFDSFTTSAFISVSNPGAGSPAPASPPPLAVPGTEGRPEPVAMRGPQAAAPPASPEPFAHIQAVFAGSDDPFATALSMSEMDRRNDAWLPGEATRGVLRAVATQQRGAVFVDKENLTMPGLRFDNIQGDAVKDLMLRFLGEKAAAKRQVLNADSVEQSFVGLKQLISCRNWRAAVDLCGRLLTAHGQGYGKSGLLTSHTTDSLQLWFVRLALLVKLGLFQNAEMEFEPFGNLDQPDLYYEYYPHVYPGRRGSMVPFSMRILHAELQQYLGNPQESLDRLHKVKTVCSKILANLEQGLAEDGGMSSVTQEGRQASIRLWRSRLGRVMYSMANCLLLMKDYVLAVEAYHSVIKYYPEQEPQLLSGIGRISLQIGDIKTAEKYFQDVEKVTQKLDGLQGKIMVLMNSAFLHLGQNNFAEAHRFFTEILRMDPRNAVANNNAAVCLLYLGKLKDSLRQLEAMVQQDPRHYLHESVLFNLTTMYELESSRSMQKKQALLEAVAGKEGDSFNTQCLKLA
UniProt Q15654: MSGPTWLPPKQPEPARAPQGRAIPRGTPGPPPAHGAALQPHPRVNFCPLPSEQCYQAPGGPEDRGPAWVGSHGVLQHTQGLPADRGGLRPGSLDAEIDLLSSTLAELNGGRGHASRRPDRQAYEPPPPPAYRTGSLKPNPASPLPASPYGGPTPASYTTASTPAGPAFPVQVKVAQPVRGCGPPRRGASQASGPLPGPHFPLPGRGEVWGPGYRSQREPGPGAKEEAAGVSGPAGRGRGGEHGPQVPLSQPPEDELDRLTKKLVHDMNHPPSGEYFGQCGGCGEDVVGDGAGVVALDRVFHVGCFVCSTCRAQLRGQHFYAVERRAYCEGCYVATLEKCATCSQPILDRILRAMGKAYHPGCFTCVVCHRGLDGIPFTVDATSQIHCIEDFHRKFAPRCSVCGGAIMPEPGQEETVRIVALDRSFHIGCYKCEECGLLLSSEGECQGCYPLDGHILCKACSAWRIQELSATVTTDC
UniProt P19474, whole entry, looked up: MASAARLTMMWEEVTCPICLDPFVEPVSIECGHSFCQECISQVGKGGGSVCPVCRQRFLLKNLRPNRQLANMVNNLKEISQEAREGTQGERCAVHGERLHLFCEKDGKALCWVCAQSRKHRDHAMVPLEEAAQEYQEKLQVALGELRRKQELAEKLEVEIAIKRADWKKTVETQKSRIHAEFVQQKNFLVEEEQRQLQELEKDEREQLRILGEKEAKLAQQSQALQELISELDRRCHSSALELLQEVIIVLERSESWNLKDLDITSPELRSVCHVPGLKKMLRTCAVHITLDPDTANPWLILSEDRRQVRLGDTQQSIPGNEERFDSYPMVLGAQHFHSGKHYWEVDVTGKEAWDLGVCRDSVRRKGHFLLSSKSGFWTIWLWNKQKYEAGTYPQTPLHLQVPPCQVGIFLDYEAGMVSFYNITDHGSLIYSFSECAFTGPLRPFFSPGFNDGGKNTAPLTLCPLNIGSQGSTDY
UniProt Q9ULW0, whole entry, looked up: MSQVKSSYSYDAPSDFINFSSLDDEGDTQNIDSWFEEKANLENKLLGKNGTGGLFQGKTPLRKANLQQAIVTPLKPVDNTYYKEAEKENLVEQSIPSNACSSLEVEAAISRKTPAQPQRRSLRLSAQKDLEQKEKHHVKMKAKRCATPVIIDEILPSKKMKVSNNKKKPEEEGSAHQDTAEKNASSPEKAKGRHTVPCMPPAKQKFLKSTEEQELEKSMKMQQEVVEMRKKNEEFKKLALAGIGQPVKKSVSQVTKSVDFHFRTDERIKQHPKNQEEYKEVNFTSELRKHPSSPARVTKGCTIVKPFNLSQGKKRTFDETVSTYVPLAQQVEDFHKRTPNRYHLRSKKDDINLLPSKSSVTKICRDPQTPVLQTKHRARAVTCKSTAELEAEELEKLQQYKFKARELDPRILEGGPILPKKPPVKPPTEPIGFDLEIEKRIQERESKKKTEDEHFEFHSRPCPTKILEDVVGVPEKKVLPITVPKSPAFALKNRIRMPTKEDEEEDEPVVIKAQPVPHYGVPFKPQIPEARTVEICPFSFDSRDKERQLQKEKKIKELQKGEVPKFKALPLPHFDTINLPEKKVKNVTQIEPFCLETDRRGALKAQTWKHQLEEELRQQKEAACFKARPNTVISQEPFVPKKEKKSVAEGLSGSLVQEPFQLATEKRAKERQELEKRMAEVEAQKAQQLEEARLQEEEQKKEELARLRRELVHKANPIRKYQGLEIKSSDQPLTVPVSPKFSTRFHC
UniProt Q9Y228: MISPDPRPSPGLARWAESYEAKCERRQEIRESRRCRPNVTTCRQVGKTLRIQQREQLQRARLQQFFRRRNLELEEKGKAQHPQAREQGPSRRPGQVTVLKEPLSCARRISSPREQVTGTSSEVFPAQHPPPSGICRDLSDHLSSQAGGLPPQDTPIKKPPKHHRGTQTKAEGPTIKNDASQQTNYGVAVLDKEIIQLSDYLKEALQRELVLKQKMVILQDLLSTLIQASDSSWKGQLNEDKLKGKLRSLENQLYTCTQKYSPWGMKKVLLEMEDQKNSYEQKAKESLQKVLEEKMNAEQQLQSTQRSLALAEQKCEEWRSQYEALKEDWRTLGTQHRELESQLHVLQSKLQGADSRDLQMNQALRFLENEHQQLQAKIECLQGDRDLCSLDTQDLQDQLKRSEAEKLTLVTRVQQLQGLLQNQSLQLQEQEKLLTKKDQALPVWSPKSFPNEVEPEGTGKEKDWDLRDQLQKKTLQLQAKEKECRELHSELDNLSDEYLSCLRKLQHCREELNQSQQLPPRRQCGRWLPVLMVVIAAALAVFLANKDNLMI
UniProt Q9UPN9: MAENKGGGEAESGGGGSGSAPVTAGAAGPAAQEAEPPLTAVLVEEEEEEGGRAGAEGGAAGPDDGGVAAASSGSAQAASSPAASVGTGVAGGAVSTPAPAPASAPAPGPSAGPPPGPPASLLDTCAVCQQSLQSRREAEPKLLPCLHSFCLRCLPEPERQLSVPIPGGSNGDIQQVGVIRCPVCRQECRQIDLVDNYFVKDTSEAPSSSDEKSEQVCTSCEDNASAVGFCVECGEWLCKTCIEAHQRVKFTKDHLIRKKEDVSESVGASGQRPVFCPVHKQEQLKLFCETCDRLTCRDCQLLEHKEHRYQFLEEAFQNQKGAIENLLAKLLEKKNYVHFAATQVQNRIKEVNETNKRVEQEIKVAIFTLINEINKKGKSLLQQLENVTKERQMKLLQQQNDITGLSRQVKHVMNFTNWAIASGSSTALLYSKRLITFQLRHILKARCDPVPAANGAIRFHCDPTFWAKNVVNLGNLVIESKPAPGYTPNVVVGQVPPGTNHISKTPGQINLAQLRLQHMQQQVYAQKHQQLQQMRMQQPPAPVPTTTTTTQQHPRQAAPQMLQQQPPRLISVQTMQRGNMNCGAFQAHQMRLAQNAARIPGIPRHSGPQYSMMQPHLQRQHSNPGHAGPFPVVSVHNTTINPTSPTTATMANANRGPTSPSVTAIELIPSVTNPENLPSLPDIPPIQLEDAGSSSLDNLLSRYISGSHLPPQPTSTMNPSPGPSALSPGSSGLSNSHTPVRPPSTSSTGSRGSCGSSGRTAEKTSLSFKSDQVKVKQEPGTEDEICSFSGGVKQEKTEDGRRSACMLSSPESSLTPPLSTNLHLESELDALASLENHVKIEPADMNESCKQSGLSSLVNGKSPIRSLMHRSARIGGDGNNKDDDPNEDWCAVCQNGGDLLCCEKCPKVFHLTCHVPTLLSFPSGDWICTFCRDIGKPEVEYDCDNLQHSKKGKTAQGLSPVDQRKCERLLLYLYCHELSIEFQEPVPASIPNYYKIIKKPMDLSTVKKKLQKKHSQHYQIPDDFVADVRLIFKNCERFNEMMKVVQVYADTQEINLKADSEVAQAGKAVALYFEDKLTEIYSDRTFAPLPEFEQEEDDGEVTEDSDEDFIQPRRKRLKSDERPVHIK
UniProt Q9H2D6: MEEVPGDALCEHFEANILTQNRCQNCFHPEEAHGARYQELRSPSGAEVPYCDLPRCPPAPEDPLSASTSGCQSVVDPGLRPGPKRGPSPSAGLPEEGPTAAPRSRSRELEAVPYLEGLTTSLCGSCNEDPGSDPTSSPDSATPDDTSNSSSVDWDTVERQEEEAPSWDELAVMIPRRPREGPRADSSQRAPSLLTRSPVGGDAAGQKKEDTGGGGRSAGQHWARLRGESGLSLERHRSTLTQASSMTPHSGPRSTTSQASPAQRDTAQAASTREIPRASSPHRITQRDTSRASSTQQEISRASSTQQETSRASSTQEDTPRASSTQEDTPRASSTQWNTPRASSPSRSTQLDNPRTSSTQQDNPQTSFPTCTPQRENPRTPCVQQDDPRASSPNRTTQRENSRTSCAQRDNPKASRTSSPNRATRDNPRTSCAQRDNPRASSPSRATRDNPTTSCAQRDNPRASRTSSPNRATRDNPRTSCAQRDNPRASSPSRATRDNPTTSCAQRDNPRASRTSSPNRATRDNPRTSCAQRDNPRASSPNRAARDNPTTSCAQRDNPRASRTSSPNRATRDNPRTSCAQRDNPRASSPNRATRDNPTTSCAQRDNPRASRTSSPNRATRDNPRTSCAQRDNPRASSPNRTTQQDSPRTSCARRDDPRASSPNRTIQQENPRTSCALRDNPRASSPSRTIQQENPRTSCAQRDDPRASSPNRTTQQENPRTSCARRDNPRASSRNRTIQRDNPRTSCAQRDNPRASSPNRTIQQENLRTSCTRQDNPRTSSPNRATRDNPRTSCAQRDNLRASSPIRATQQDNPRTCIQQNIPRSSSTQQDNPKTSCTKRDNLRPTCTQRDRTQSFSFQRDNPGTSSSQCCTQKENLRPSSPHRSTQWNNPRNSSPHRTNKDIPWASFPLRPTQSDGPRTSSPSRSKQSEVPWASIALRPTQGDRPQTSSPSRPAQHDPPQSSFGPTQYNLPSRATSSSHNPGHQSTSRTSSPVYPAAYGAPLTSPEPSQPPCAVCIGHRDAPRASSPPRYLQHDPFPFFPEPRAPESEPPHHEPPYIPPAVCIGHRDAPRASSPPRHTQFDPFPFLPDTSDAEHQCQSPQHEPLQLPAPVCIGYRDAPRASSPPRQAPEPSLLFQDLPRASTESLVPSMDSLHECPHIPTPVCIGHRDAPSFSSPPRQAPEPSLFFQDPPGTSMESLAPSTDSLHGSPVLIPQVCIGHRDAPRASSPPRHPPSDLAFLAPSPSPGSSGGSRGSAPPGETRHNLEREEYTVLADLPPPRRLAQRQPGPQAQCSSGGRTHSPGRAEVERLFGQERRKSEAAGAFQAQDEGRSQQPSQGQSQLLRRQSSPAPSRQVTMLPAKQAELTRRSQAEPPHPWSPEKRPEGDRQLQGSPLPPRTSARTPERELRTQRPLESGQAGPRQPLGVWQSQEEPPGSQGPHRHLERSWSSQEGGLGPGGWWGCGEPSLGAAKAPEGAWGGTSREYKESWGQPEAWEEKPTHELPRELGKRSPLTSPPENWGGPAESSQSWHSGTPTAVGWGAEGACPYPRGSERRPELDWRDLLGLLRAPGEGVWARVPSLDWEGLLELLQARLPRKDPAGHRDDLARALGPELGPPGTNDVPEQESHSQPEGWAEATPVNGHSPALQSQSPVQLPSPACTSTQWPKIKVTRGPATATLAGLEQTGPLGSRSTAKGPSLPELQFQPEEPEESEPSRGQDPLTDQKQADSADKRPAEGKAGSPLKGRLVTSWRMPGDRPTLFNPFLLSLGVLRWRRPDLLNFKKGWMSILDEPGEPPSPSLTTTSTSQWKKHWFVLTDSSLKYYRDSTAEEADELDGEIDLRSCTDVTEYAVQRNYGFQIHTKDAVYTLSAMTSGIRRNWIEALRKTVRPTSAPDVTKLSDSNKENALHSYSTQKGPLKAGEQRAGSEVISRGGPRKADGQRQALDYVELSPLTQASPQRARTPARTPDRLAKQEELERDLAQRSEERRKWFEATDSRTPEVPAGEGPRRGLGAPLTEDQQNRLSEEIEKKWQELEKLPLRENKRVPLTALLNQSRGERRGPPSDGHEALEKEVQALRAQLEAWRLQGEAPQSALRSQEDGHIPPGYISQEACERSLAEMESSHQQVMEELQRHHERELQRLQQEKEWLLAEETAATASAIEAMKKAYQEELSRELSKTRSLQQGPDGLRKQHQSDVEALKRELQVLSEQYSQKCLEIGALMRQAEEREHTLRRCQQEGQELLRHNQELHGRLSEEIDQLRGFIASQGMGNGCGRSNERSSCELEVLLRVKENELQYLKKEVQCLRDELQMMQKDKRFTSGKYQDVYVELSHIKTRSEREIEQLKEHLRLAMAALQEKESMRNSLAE

The other results are listed elsewhere or left out.

This note sets out measurements from the supplement of paper PMC12067093, “Discovery and optimisation of a covalent ligand for TRIM25 and its application to targeted protein ubiquitination” (Chemical Science, 2025).
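Also: competitive profiling in live THP-1 cells: cysteine peptides tagged with an iodoacetamide desthiobiotin (IA-DTB) probe, intensity after compound treatment relative to DMSO-treated cells.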

With “TRAPPC12_Q8WVT3_663_NAVANNNAAVCLLYLGK (UniProt Q8WVT3)”, the “probe-labelled cysteine peptide fold change” value reads like this: (10 µM) 0.14; (50 µM) 0.307.

“TRIP6_Q15654_339+342_CATCSQPILDR (UniProt Q15654)”: the “probe-labelled cysteine peptide fold change” value by setting is: (10 µM) 0.045; (50 µM) -0.28.

Consider “TRIM21_P19474_103_LHLFCEK (UniProt P19474)”, for which the “probe-labelled cysteine peptide fold change” value reads like this: (10 µM) 0.171; (50 µM) -0.196.

For “TRAFD1_O14545_267_AVCEADQSHGGPR (UniProt O14545)”, the “probe-labelled cysteine peptide fold change” value was -0.116 (10 µM) and -0.0923 (50 µM).

For “TRIM28_Q13263_651_VCQKPGDLVMCNQCEFCFHLDCHLPALQDVPGEEWSCSLCHVLPDLK (UniProt Q13263)”, the “probe-labelled cysteine peptide fold change” value (10 µM) turned out to be 0.159 and the “probe-labelled cysteine peptide fold change” value (50 µM) is 0.13.

Take “TPX2_Q9ULW0_145_CATPVIIDEILPSKK (UniProt Q9ULW0)”: the “probe-labelled cysteine peptide fold change” value runs as follows: (10 µM) -0.122; (50 µM) -0.223.

For “TPR_P12270_1127_AESQLLECK (UniProt P12270)”, the “probe-labelled cysteine peptide fold change” value is, setting by setting: (10 µM) 0.0505; (50 µM) 0.0568.

Turning to “TRAF3IP3_Q9Y228_35_CRPNVTTCR (UniProt Q9Y228)”, the “probe-labelled cysteine peptide fold change” value runs as follows: (10 µM) 0.0625; (50 µM) 0.0955.

As to “TRIM33_Q9UPN9_241_TCIEAHQR (UniProt Q9UPN9)”, the “probe-labelled cysteine peptide fold change” value (10 µM) was found to be 0.214 and the “probe-labelled cysteine peptide fold change” value (50 µM) was 0.367.

For the target “TRIM21_P19474_114_ALCWVCAQSR (UniProt P19474)”, the “probe-labelled cysteine peptide fold change” value was determined as 0.148 (10 µM) and 0.024 (50 µM).

On to “TRIM25_Q14258_157_CSQHNR (UniProt Q14258)”, for which the “probe-labelled cysteine peptide fold change” value is 0.102 (10 µM) and -0.0362 (50 µM).

Regarding “TRIM32_Q13049_509_YSCLCSAVRPK (UniProt Q13049)”, the “probe-labelled cysteine peptide fold change” value (10 µM) is -0.204 and the “probe-labelled cysteine peptide fold change” value (50 µM) was -0.0318.

Take “TRAPPC11_Q7Z392_845_CGTVGSR (UniProt Q7Z392)”: the “probe-labelled cysteine peptide fold change” value is, setting by setting: (10 µM) 0.0126; (50 µM) 0.0768.

“TRIOBP_Q9H2D6_2111_SQEDGHIPPGYISQEACER (UniProt Q9H2D6)”: the “probe-labelled cysteine peptide fold change” value runs as follows: (10 µM) 0.00515; (50 µM) -0.000468.
